# Measurements as given in US9452225B2, “GLP-1 prodrugs” (Novo Nordisk A/S, priority 2012, dated 2016).
# By UniProt entry, the sequences of proteins in these tests, tags left out. Residues count along the entry.
# UniProt P43220, 24-463: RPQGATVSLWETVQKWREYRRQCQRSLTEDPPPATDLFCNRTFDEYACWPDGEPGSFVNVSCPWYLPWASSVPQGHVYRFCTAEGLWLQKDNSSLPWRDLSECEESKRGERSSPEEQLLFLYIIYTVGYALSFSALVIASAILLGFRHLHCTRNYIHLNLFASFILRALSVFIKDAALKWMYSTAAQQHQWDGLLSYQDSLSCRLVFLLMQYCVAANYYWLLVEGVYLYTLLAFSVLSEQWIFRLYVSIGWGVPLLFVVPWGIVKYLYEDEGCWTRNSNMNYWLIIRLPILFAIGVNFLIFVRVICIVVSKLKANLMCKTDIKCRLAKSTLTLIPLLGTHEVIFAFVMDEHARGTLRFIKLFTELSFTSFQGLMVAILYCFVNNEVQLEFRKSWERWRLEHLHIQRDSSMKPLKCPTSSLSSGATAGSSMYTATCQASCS
# At least one compound was matched to its structure with a doubt left. Numbered stars: 1 amine (or outer) side, 2 acyl side, 3 side chain; on linkers, the order of the positions; unused ones are H or OH. Side chains are listed from the residue outwards. Peptide text beside a SMILES is read from it. * marks the point of attachment. Decanoyl(10-(4-HOOC-PhO)) = O=C(O)c1ccc(OCCCCCCCCCC(=O)*)cc1; γGlu = O=C(O)[C@H](CCC(=O)[*:2])N[*:1]; AEEA = NCCOCCOCC(=O)O
# Biological target: T1, human GLP-1 receptor (Homo sapiens, UniProt P43220)
# T1 construct: expressed in transfected cells; host or cells: BHK cells, clone FCW467-12A (parent line BHKTS13), membranes
# Assay: GLP-1 receptor binding, SPA displacement of 125I-GLP-1, low albumin
# Conditions: read-out: Receptor binding Low albumin (IC50/nM), low albumin (0.005% HSA)
# Procedure: The purpose of this experiment is to test the receptor binding activity of the GLP-1 parent drugs of the prodrugs of the invention. The receptor binding is a measure of affinity of a parent drug for the human GLP-1 receptor. The parent GLP-1 drugs of Examples B2.1, B2.2, B2.3, B2.4, and B2.5 were tested as described below.
# The receptor binding of the GLP-1 drugs to the human GLP-1 receptor was measured in a competitive binding assay. In this type of assay a labelled ligand (in this case ^125I-GLP-1) is bound to the receptor. Each drug is added in a series of concentrations to isolated membranes containing the human GLP-1 receptor and displacement of the labelled ligand is monitored. The receptor binding is reported as the concentration at which half of the labelled ligand is displaced from the receptor, the IC50 value.
# In order to test the binding of the drugs to the receptor in the presence of albumin, the assay may be performed in a very low concentration of serum albumin (preferably max 0.001% final assay concentration (alternatively 0.005%—corresponding to the residual amount thereof in the tracer), as well as in the presence of a considerably higher concentration of serum albumin (2.0% final assay concentration). An increase of the IC50 value in the presence of serum albumin indicates an affinity to serum albumin and represents a method to predict a protracted pharmacokinetic profile of the test substance in animal models. […]
# The cells were grown at 5% CO2 in DMEM, 10% fetal calf serum, 1% Pen/Strep (Penicillin/Streptomycin) and 1.0 mg/ml of the selection marker G418. […] The resulting pellet was re-suspended in buffer 2 and the protein concentration was determined. […]
smiles,measurement,value
CC[C@H](C)[C@H](NC(=O)[C@H](Cc1ccccc1)NC(=O)[C@H](CCC(=O)O)NC(=O)[C@H](CCCNC(=N)N)NC(=O)[C@@H](NC(=O)[C@H](C)NC(=O)[C@H](CCC(N)=O)NC(=O)[C@H](CCC(=O)O)NC(=O)[C@H](CCC(=O)O)NC(=O)[C@H](CC(C)C)NC(=O)[C@H](Cc1ccc(O)cc1)NC(=O)[C@H](CCCCNC(=O)COCCOCCNC(=O)COCCOCCNC(=O)CC[C@H](NC(=O)CCCCCCCCCOc1ccc(C(=O)O)cc1)C(=O)O)NC(=O)[C@H](CO)NC(=O)[C@@H](NC(=O)[C@H](CC(=O)O)NC(=O)[C@H](CO)NC(=O)[C@@H](NC(=O)[C@H](Cc1ccccc1)NC(=O)[C@@H](NC(=O)CNC(=O)[C@H](CCC(=O)O)NC(=O)[C@H](C)NC(=O)[C@@H](N)Cc1c[nH]cn1)[C@@H](C)O)[C@@H](C)O)C(C)C)C(C)C)C(=O)N[C@@H](C)C(=O)N[C@@H](CCCCNC(=O)COCCOCCNC(=O)COCCOCCNC(=O)CC[C@H](NC(=O)CCCCCCCCCOc1ccc(C(=O)O)cc1)C(=O)O)C(=O)N[C@@H](CC(C)C)C(=O)N[C@H](C(=O)N[C@@H](CCCNC(=N)N)C(=O)NCC(=O)N[C@@H](CCCNC(=N)N)C(=O)NCC(=O)O)C(C)C [reference compound] (H-HAEGTFTSDVSK([AEEA-AEEA-γGlu-Decanoyl(10-(4-HOOC-PhO))])YLEEQAVREFIAK([AEEA-AEEA-γGlu-Decanoyl(10-(4-HOOC-PhO))])LVRGRG-OH; C-terminus assumed),IC50,5.8 nM
